± gives the standard deviation. The list shows a part of the results, in another mix than the full data. Many entries were measured with a wide error.

The assay relates to MILI (PIWIL2) piRISC loaded with Kctd7 piRNA (26 nt). The assay is described as follows: pre-steady-state target cleavage rate (min^-1); MIWI and MILI are mouse PIWI proteins and EfPiwi is from a freshwater sponge; tags in brackets are library labels; higher = faster piRNA-guided slicing of the target. Particulars: guide: Kctd7 piRNA 5'p-UGUUAAUCUCUCAGAGAAGGUGACAG; auxiliary factor: 500 nM mouse GTSF1. Put shortly: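 Cleave-'n-Seq: a transcribed, DNA-blocked target RNA library (0.1 nM) was mixed with 1 nM active affinity-purified piRISC carrying one synthetic guide, with or without 500 nM GTSF1 partner protein, in HEPES–potassium acetate buffer at 33 °C for 0–8 or 0–960 min. Uncleaved targets were sequenced and normalised to depth and to weakly complementary targets. Three trials were pooled, and k3 was capped at 0.0001 min^-1. The pre-steady-state cleavage rate came from a burst-and-steady-state fit.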
Turning to UAGUGAGUCACCUUCUCUGAGCAGAUUAACA, the “pre-steady-state target cleavage rate” value stood at 0.00439 ± 0.0066. Next, UAGUCAGUCACCUUCUCUGAGAGAUUAACA: 0.249 ± 0.016; UAGUGACAGUGGAUCUCUGAGAGAUUGACA: 0.000133 ± 0.018; UAGUGACAGUGCUUCUCUGAGAGUUUUACA: 0.00043 ± 0.011.

In the case of UAGUCUGUCACCUUCUCUGAGAGAUUCACA, the “pre-steady-state target cleavage rate” value was 0.265 ± 0.059. Turning to UAGUGACAGACGAUCUCUGAGAGAUUAAGA, the “pre-steady-state target cleavage rate” value came out at 0.00216 ± 0.0038.

Take UAGUGACAGUGGAAGUCUGAGAGAUAAACA: the “pre-steady-state target cleavage rate” value stood at 0.000125 ± 0.065.

Turning to UAGUGACAGUGGAAGAGACAGACAUUAUCA, the “pre-steady-state target cleavage rate” value was found to be 0.000334 ± 0.018.

For the sequence UAGUGACAGACCUUCUCUGACUCAUUAUGA, the “pre-steady-state target cleavage rate” value came to 0.000111 ± 0.04. With UAGUGACAGUGCUUCUCAUGAGAGAUUAACA the figure was 0.000569 ± 0.011; with UAGUGACAGUCCUUGUCUGAGAGAAUAACA, 0.000782 ± 0.016.

As to UAGUGACAGUGGAAGUCUGAGUAGAUUAACA, the “pre-steady-state target cleavage rate” value worked out at 0.000106 ± 0.036. Take UAGUGACAGUGGAACUCUGAGAGAUUAAAA: the “pre-steady-state target cleavage rate” value came out at 0.00011 ± 0.055. With UAGUGACAGUGCUUCUCUGAAGAGAUUAACA the figure was 0.000261 ± 0.015; with UAGUGUGUCACCUUCUCUGAGUCUUUAUGA, 0.00245 ± 0.0069; with UAGUGACAGUGGAAGUCUGAGAGAUUAAUA, 0.000134 ± 0.037. Regarding UAGUGACAGAGGAUCUCUGAGAGAUUAAGA, the “pre-steady-state target cleavage rate” value was 0.000427 ± 0.011.

As to “UAGUGACAGUGGAACUCUGAGAGAUUAACU [g2:g16:cont:t1U]”, the “pre-steady-state target cleavage rate” value amounted to 0.000348 ± 0.02.

Turning to UAGUGACAGUCCUUCUCUCGAGAGAUUAACA, the “pre-steady-state target cleavage rate” value was 0.000858 ± 0.011. Next, UAGUCUGUCACCUUCAGAGAGAGAUUAACA: 0.0227 ± 0.0099; UAGUGACAGUGGAAGAGACUGAGGAUUAACA: 0.000108 ± 0.029. With UAGUCUGUCACCAUCUCUGAGAGAUUUACA the figure was 0.124 ± 0.018.

With UAGUGACAGACCUUCUCUCAGAGAUAAACA, the “pre-steady-state target cleavage rate” value is 0.00202 ± 0.006.

For UAGUGACAGUCGUUCUCUGAGUGAUUAACA, the “pre-steady-state target cleavage rate” value is 0.00111 ± 0.0078. Next, UAGUGACAGUCGUUCUCUGACAGAUUAACA: 0.000144 ± 0.026; UAGUGACAGACCUUCUCUGACAGAUUAUCA: 0.00159 ± 0.0058. As to UAGUGACAGACCUUCUCUGACUCAUUAAGA, the “pre-steady-state target cleavage rate” value worked out at 0.00034 ± 0.026. Next, UAGUGACAGACCUUCUCUGAGACAAUAACA: 0.000777 ± 0.0074; UAGUGACAGUGGAAGAGAGACAGAUUAACA: 0.000201 ± 0.027; UAGUGACACACCUUCUCUCUGAGAUUUUGA: 0.000798 ± 0.0098.

With UAGUGACACACCUUGUCUGAGAGAAUAACA, the “pre-steady-state target cleavage rate” value was 0.00208 ± 0.0081.

Consider “UAGUGACACACCUUCUCUGAGAGAUUAACA [g2:g22:cont:t1A]”, for which the “pre-steady-state target cleavage rate” value is 0.178 ± 0.01. Next, UAGUGACAGACCAUCUCUGAGAGAUUUUGA: 0.000717 ± 0.011.

Take UAGUGACAGACGUUCUCUCAGAGAUUAACA: the “pre-steady-state target cleavage rate” value was 0.0137 ± 0.0054.

With UAGUGACAGUGCUUCUCUGAGAGAUUAAAA, the “pre-steady-state target cleavage rate” value was 0.0041 ± 0.0043. As to UAGUGACAGAACCUUCUCUGAGAGAUUAACA, the “pre-steady-state target cleavage rate” value was 0.0771 ± 0.01. As for UAGUGACAGUGGAUCCUGAGAGAUUAACA, the “pre-steady-state target cleavage rate” value was found to be 0.000101 ± 0.029.

In the case of UAGUGACACACCUUCAGAGAGAGAUUAUGA, the “pre-steady-state target cleavage rate” value stood at 0.00119 ± 0.013.

For the sequence UAGUGACAGUGGUUCUCUGAGAGAUUACCA, the “pre-steady-state target cleavage rate” value was determined as 0.000309 ± 0.015. With UAGUGACAGACCUACUCUGAGAGAUUUUGA, the “pre-steady-state target cleavage rate” value was determined as 0.000768 ± 0.011. Next, UAGUGACAGUGGAACUCUGAGUGAUUAAGA: 0.000756 ± 0.021; UAGUGUGUCACCUUCUCUGAGAGUAUAACA: 0.181 ± 0.072; UAGUGUGUCAGGUUCUCUGAGAGAUUAUGA: 0.00789 ± 0.0035.

Regarding UAGUGACAGUGGUUCUGUGAGACAUUAACA, the “pre-steady-state target cleavage rate” value came to 0.000222 ± 0.021. For UAGUGACAGUCCUUCUCUGAGAGUUAACA, the “pre-steady-state target cleavage rate” value turned out to be 0.0004 ± 0.011. Regarding UAGUCUCACACCUUCUCUGAGAGAUAUUGA, the “pre-steady-state target cleavage rate” value turned out to be 0.00369 ± 0.0044.

In the case of UAGUGACAGUCCAUCUCUGAGUGAUUAACA, the “pre-steady-state target cleavage rate” value amounted to 0.000955 ± 0.0059.

As to UAGUGACAGUGCUUCUCUGAGAGAUAUAGA, the “pre-steady-state target cleavage rate” value turned out to be 0.00012 ± 0.016. Next, UAGUCUCUCACCUUCUCUGAGUGAUUAACA: 0.00476 ± 0.0037.

As to UAGUGACAGUGCUUCUGUGAGUGAUUAACA, the “pre-steady-state target cleavage rate” value was 0.00306 ± 0.0031. For UAGUGACAGUCCUUCUCUGAGAGAAUAAGA, the “pre-steady-state target cleavage rate” value worked out at 0.000203 ± 0.023. With UAGUGACAGUGGAAGAGACACACAUUAACA the figure was 0.000216 ± 0.034; with UAGUGACAGUGGAACUCUGGGAGAUUAACA, 0.000276 ± 0.014; with UAGUGACAGUGGAAGAGACAGAGGAUUAACA, 0.000667 ± 0.011. Next, UAGUGACAGUGGAAGACUGAGACGAUUAACA: 0.000149 ± 0.018; UAGUGACAGUCCAUCUCAGAGAGAUUAACA: 0.00278 ± 0.0045; UAGUGUGUCACCUUCUCUGGAGAGAUUAACA: 0.00211 ± 0.0075. With UAGUGACAGUCCUUCUACUGAGAGAUUAACA the figure was 0.00139 ± 0.0063; with UAGUGACAGUGGUUCUCUGACACAUUAACA, 0.000138 ± 0.029.

For the sequence UAGUGACAGUGCUUCUCUCACAGAUUAACA, the “pre-steady-state target cleavage rate” value was found to be 0.00149 ± 0.0058. Consider UAGUGACAGUCCUUCUCAGAGAGAUUAUGA, for which the “pre-steady-state target cleavage rate” value worked out at 0.00157 ± 0.0058. For UAGUGACUCACCUUCUCUGAGUGAUUAACA, the “pre-steady-state target cleavage rate” value came to 0.00117 ± 0.0059. Consider UAGUGACAGUGGAAGAGACUCAGAUUUACA, for which the “pre-steady-state target cleavage rate” value turned out to be 0.00033 ± 0.0096. With UAGUGACAGUGGUUACUCUGAGAGAUUAACA the figure was 0.000618 ± 0.0075. With UAGUGAGUCACCUUCUGUGAGUGAUUAACA the figure was 0.00282 ± 0.0045; with UAGUGACAGUGGAAGGCUGAGAGAUUAACA, 0.000167 ± 0.021. As to UAGUGAGUCACCUUCUGAGAGAGAUUAACA, the “pre-steady-state target cleavage rate” value was determined as 0.074 ± 0.011.

Regarding UAGUGACAGACCUUCUCUGAGACAUUUUGA, the “pre-steady-state target cleavage rate” value is 0.000466 ± 0.018. Next, UAGUGACAGUCCUACUCUGAGAGAUUAUGA: 0.000363 ± 0.0088. With UAGUGACAGUGGAAGAGUGAGUCUUUAACA the figure was 0.000206 ± 0.027; with UAGUGACAGUCCUUCUCUGAGAGUUUAUCA, 0.000492 ± 0.011. In the case of UAGUCCUGUCACCUUCUCUGAGAGAUUAACA, the “pre-steady-state target cleavage rate” value stood at 0.275 ± 0.026.

For the sequence UAGUGACUCUCCUUCUCUGAGAGAUUUUGA, the “pre-steady-state target cleavage rate” value is 0.00286 ± 0.0044.

Consider UAGUGACACUCCUUCUCUGAGAGAUAUUGA, for which the “pre-steady-state target cleavage rate” value was 0.00127 ± 0.0069. On to UAGUGUCAGACCUUCUCUGAGAGAUUUUGA, for which the “pre-steady-state target cleavage rate” value was 0.000952 ± 0.01.

Take UAGUGAGUCACCUUCUCUGAGUCAUUAUGA: the “pre-steady-state target cleavage rate” value amounted to 0.00101 ± 0.011. For the sequence UAGUGAGUGUGCUUCUCUGAGAGAUUAUGA, the “pre-steady-state target cleavage rate” value amounted to 0.00163 ± 0.0048. On to UAGUGACAGUCCUACUCUGACAGAUUAACA, for which the “pre-steady-state target cleavage rate” value turned out to be 0.000129 ± 0.022. Next, UAGUGACAGUGGAAGAGACAGAGAUUUAACA: 0.000299 ± 0.02. With UAGUGACACACCUUCUCUGAGGAUUAACA the figure was 0.00287 ± 0.0048; with UAGUGACAGUCCUACUCAGAGAGAUUAACA, 0.00159 ± 0.0048. Next, UAGUGACAGUGGUUCUCUGUGACAUUAACA: 0.000309 ± 0.025.

In the case of “UAGUGAGUCACCUUCUGACUCUCUAAUUGA [g15:g24:cont:t1A]”, the “pre-steady-state target cleavage rate” value is 0.000555 ± 0.017. With UAGUGACAGUGGAAGUCUGAGACGAUUAACA the figure was 0.000269 ± 0.025; with UAGUGUGUCACCUUCUCUGACAGAAUAACA, 0.00162 ± 0.0058. Take UAGUGACACACCUUCUCUGUGUGAUUAACA: the “pre-steady-state target cleavage rate” value worked out at 0.00236 ± 0.0064. In the case of UAGUGACAGACCUUCUCUGACAGAUUUACA, the “pre-steady-state target cleavage rate” value was 0.0017 ± 0.0058.

Take UAGUGACAGUGCUUCUCUGAGAGAAUUACA: the “pre-steady-state target cleavage rate” value came to 0.000111 ± 0.029. With UAGUGACAGUGGAUCUCUGACACAUUAACA the figure was 0.00041 ± 0.012; with UAGUGACAGUGGAAGAGUCAGACAUUAACA, 0.000121 ± 0.039; with UAGUGACAGACCUUCUGCUGAGAGAUUAACA, 0.000711 ± 0.018.
